The values that follow come from article PMC9813392.

The target of this assay is Noc3p with the C-terminal NOC domain deleted, yeast two-hybrid fusion (S. cerevisiae) (UniProt Q07896). Nature of the assay: two-hybrid; Matchmaker system III (Clontech); BD- and AD-fusion proteins; growth on SCM-Trp-Leu-His plates; empty BD or AD vector as negative controls.

Results are given in words; binding and its absence hold for the method and conditions named. A result given as binding can be weak or reduced; the word gives no strength. Sequences can lack the tags named with a protein.

B1: Noc3p, full length, yeast two-hybrid fusion (BD-NOC3 and AD-Noc3p) (protein, UniProt Q07896 1-663)
chain: MAKRNRSQFRIQERTAKKRKHEDSLLEGNVFQNAPEDMDENTIYSAKGSSWDEEEQDYEMVPRKNRSDTSNLVEGLPIKVNGKVERKLHKAQEKPKDDDEEDEDSNDSSEDDEGPNEEQEAEAKEDEPDTEEKILQLKEDIADLVTKVMEEPEENTAALGRLCKMVESKNPNTCKFSMLALVPVFKSIIPGYRIRPLTETEKKEKVSKEVSKLRNFEQALVYNYKNYVGRLQSLSKTPSNAAPIQVSLGILATQAAKELISTASHFNFRTDIFTLLLRRICKPRISTDPTSIQIIQTFETLLNEDEEGSISFEILRIFNKILKTRNFNIEESVLNMLLSLDVLHDYDPNTKLKGNVSAPKLKKKDRVHLSKKQRKARKEMQQIEEEMRNAEQAVSAEERERNQSEILKIVFTIYLNILKNNAKTLIGSVLEGLTKFGNMANFDLLGDFLEVMKELISDTEFDNLSSAEVRKALLCIVSAFSLISNTQYMKVNVDLSKFVDGLYALLPYICLDADIELSYRSLRLADPLNNEIIKPSVNVSTKAELLLKALDHVFFRSKSGTKERATAFTKRLYMCISHTPEKTSIAILKFIDKLMNRYPEISGLYSSEDRIGNGHFIMEADNPSRSNPEAATLWDNALLEKHYCPVVTKGLRSLSSRSKECSK
With B1, the binding result is on record as “binds”.

B2: Orc2p, yeast two-hybrid fusion (AD-Orc2p) (protein, UniProt P32833 1-620)
chain: MLNGEDFVEHNDILSSPAKSRNVTPKRVDPHGERQLRRIHSSKKNLLERISLVGNERKNTSPDPALKPKTPSKAPRKRGRPRKIQEELTDRIKKDEKDTISSKKKRKLDKDTSGNVNEESKTSNNKQVMEKTGIKEKREREKIQVATTTYEDNVTPQTDDNFVSNSPEPPEPATPSKKSLTTNHDFTSPLKQIIMNNLKEYKDSTSPGKLTLSRNFTPTPVPKNKKLYQTSETKSASSFLDTFEGYFDQRKIVRTNAKSRHTMSMAPDVTREEFSLVSNFFNENFQKRPRQKLFEIQKKMFPQYWFELTQGFSLLFYGVGSKRNFLEEFAIDYLSPKIAYSQLAYENELQQNKPVNSIPCLILNGYNPSCNYRDVFKEITDLLVPAELTRSETKYWGNHVILQIQKMIDFYKNQPLDIKLILVVHNLDGPSIRKNTFQTMLSFLSVIRQIAIVASTDHIYAPLLWDNMKAQNYNFVFHDISNFEPSTVESTFQDVMKMGKSDTSSGAEGAKYVLQSLTVNSKKMYKLLIETQMQNMGNLSANTGPKRGTQRTGVELKLFNHLCAADFIASNEIALRSMLREFIEHKMANITKNNSGMEIIWVPYTYAELEKLLKTVLNTL
In the case of B2, the binding entry was “binds”.
